PubChem BioAssay AID1259405 | NCATS, 2018

- Test: 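Mouse-designed siRNAs used to find CHO productivity engineering targets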 (primary screen)
- Cells: Chinese hamster CHO-K1 ovary cells with stable secreted eGFP expression
- Reagent: single siRNA against mouse genes, 0.8 pmol siRNA per well (2 µl of 400 nM stock)
- Timing: 3 days
- Measured: 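Percent of the per-plate non-targeting control median for intracellular GFP per well by laser scanning cytometry and for cell viability by ATP luminescence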
- Scale: GFP, % of control: higher = more GFP per well, higher productivity; viability (ATP), % of control: higher = more viable cells (more ATP)
- Rule for the call: 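Called active when intracellular GFP, relative to negative control, is at or above 120%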
Here is a random part of about 50,000 reagents. About 4,000 of all reagents (8%) count as active. 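Mouse siRNA library applied to hamster cells; one well for each siRNA.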 The numbers tell different reagents against one gene apart.

The opening 6 records, to show the layout:
Target gene | siRNA no. | GFP, % of control | viability (ATP), % of control | Call
Dars1 (aspartyl-tRNA synthetase 1) | 1 | 104 | 82.4 | inactive
Dars1 (aspartyl-tRNA synthetase 1) | 2 | 64.5 | 65.9 | inactive
Dars1 (aspartyl-tRNA synthetase 1) | 3 | 95 | 91.9 | inactive
Prkrip1 (Prkr interacting protein 1 (IL11 inducible)) | 1 | 64.3 | 51.1 | inactive
Prkrip1 (Prkr interacting protein 1 (IL11 inducible)) | 2 | 86.3 | 52.1 | inactive
Prkrip1 (Prkr interacting protein 1 (IL11 inducible)) | 3 | 86.1 | 92.6 | inactive

The list itself, repeating the preview:
Target gene | siRNA no. | GFP, % of control | viability (ATP), % of control | Call
Dars1 (aspartyl-tRNA synthetase 1) | 1 | 104 | 82.4 | inactive
Dars1 (aspartyl-tRNA synthetase 1) | 2 | 64.5 | 65.9 | inactive
Dars1 (aspartyl-tRNA synthetase 1) | 3 | 95 | 91.9 | inactive
Prkrip1 (Prkr interacting protein 1 (IL11 inducible)) | 1 | 64.3 | 51.1 | inactive
Prkrip1 (Prkr interacting protein 1 (IL11 inducible)) | 2 | 86.3 | 52.1 | inactive
Prkrip1 (Prkr interacting protein 1 (IL11 inducible)) | 3 | 86.1 | 92.6 | inactive
Mrps2 (mitochondrial ribosomal protein S2) | 1 | 67 | 72.9 | inactive
Mrps2 (mitochondrial ribosomal protein S2) | 2 | 56 | 51.8 | inactive
Mrps2 (mitochondrial ribosomal protein S2) | 3 | 80.9 | 67.2 | inactive
Sfxn2 (sideroflexin 2) | 1 | 99.8 | 86.4 | inactive
Sfxn2 (sideroflexin 2) | 2 | 60.2 | 77.7 | inactive
Sfxn2 (sideroflexin 2) | 3 | 147 | 68.3 | active
Synb (syncytin b) | 1 | 77.7 | 74.2 | inactive
Synb (syncytin b) | 2 | 111 | 66.1 | inactive
Synb (syncytin b) | 3 | 83.7 | 89.3 | inactive
Efcab7 (EF-hand calcium binding domain 7) | 1 | 53.1 | 33.2 | inactive
Efcab7 (EF-hand calcium binding domain 7) | 2 | 70.9 | 87.9 | inactive
Efcab7 (EF-hand calcium binding domain 7) | 3 | 111 | 102 | inactive
Or4f52 (olfactory receptor family 4 subfamily F member 52) | 1 | 55.9 | 54.4 | inactive
Or4f52 (olfactory receptor family 4 subfamily F member 52) | 2 | 77.4 | 66.1 | inactive
Or4f52 (olfactory receptor family 4 subfamily F member 52) | 3 | 63.3 | 93.6 | inactive
Fem1a (fem 1 homolog a) | 1 | 74.3 | 92.4 | inactive
Fem1a (fem 1 homolog a) | 2 | 68.4 | 107 | inactive
Fem1a (fem 1 homolog a) | 3 | 103 | 65.8 | inactive
Trim39 (tripartite motif-containing 39) | 1 | 65.8 | 59.1 | inactive
Trim39 (tripartite motif-containing 39) | 2 | 105 | 85.4 | inactive
Trim39 (tripartite motif-containing 39) | 3 | 110 | 137 | inactive
Pfkl (phosphofructokinase, liver, B-type) | 1 | 78.5 | 58.6 | inactive
Pfkl (phosphofructokinase, liver, B-type) | 2 | 62.5 | 56.7 | inactive
Pfkl (phosphofructokinase, liver, B-type) | 3 | 108 | 77.5 | inactive
Mypn (myopalladin) | 1 | 78.7 | 65.6 | inactive
Mypn (myopalladin) | 2 | 81.5 | 86.4 | inactive
Mypn (myopalladin) | 3 | 44.2 | 60.5 | inactive
Chrd (chordin) | 1 | 59.4 | 45.9 | inactive
Chrd (chordin) | 2 | 43.2 | 65.1 | inactive
Chrd (chordin) | 3 | 112 | 49.4 | inactive
Zbtb7a (zinc finger and BTB domain containing 7a) | 1 | 116 | 115 | inactive
Zbtb7a (zinc finger and BTB domain containing 7a) | 2 | 93.1 | 94.3 | inactive
Or8k3b (olfactory receptor family 8 subfamily K member 3B) | 1 | 84 | 48.6 | inactive
Or8k3b (olfactory receptor family 8 subfamily K member 3B) | 2 | 140 | 111 | active
Or8k3b (olfactory receptor family 8 subfamily K member 3B) | 3 | 71.6 | 119 | inactive
Ptdss2 (phosphatidylserine synthase 2) | 1 | 110 | 125 | inactive
Ptdss2 (phosphatidylserine synthase 2) | 2 | 68.5 | 108 | inactive
Ptdss2 (phosphatidylserine synthase 2) | 3 | 99.8 | 84.5 | inactive
Prtn3 (proteinase 3) | 1 | 132 | 59.3 | active
Prtn3 (proteinase 3) | 2 | 75.9 | 65.4 | inactive
Prtn3 (proteinase 3) | 3 | 118 | 80.1 | inactive
Slco5a1 | 1 | 83.9 | 80.2 | inactive
Slco5a1 | 2 | 79.9 | 87.7 | inactive
Slco5a1 | 3 | 70.9 | 33.3 | inactive
Rint1 (RAD50 interactor 1) | 1 | 101 | 95.9 | inactive
Rint1 (RAD50 interactor 1) | 2 | 97 | 85.1 | inactive
Rint1 (RAD50 interactor 1) | 3 | 52.1 | 33.8 | inactive
Pign (phosphatidylinositol glycan anchor biosynthesis, class N) | 1 | 111 | 94.8 | inactive
Pign (phosphatidylinositol glycan anchor biosynthesis, class N) | 2 | 62.6 | 87.1 | inactive
Pign (phosphatidylinositol glycan anchor biosynthesis, class N) | 3 | 92.9 | 139 | inactive
Dnm1l (dynamin 1-like) | 1 | 66.3 | 60 | inactive
Dnm1l (dynamin 1-like) | 2 | 32.5 | 43.1 | inactive
Dnm1l (dynamin 1-like) | 3 | 80.1 | 73.6 | inactive
